# Primary screen of a compound library

Mtb glucose medium: 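Phenotypic screen: M. tuberculosis growth, glucose 7H9 medium, 3 days; the read-out is not stated. Tested at 500 µM. Higher reads as more growth inhibition (inferred: compounds with an IC50 in retests scored well above the rest). Of about 18,000 compounds tested this way, about 1,400 (7.9%) reached 50% or more in at least one test.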
Mtb cholesterol medium: 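Whole-cell growth test on Mycobacterium tuberculosis, read after 4 days in a medium based on cholesterol and the lipid DPPC; the read-out is not stated. Compounds at 500 µM. Direction is inferred from retests: higher values go with more growth inhibition. Size under these conditions: about 18,000 compounds, about 900 of them at 50% or above in at least one test.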

Each number is a percent effect as filed.
The controls that fix the scale are not given in the record; negative values are as filed.
Compounds were drawn at random from those tested, without regard to their results.

- CCCc1nccn1CC(=O)NC(C)C | Mtb glucose medium: -6.425%; Mtb cholesterol medium: -11.25%
- CC(=O)c1c[nH]c(C(=O)NC(C)Cc2ccco2)c1 (stereo unspecified) | Mtb glucose medium: 42.79%; Mtb cholesterol medium: 17.04%
- Cc1ccc(F)c(N2CCCC(N)C2=O)c1 (stereo unspecified) | Mtb glucose medium: 19.37%; Mtb cholesterol medium: -0.8495%
- O[C@@H]1CCN[C@@H]1c1ccc(Cl)cc1 | Mtb glucose medium: 19.25%; Mtb cholesterol medium: 6.726%
- Cc1cc(NC(=O)CN2CCC(CO)CC2)n(C)n1 | Mtb glucose medium: 3.571%; Mtb cholesterol medium: 4.13%
- CCC(C)c1cc(C(=O)NC(C)(CO)CO)on1 (stereo unspecified) | Mtb glucose medium: -2.682%; Mtb cholesterol medium: -13.08%
- OCc1ccc(CO)cc1 | Mtb glucose medium: 4.935%; Mtb cholesterol medium: 6.634%
- CN1CCC(CCNS(C)(=O)=O)CC1 | Mtb glucose medium: 1.858%; Mtb cholesterol medium: 0.1467%
- Cc1ccc(C(C)NC(=O)c2cnccn2)o1 (stereo unspecified) | Mtb glucose medium: 4.074%; Mtb cholesterol medium: -10.79%
- Cc1[nH]c2ccc(C(N)=O)cc2c1C | Mtb glucose medium: 77.24%; Mtb cholesterol medium: 90.08%
- O=C(NC1CC1)c1cn2ccccc2n1 | Mtb glucose medium: 2.935%; Mtb cholesterol medium: -2.619%
- CC(=O)N1CCN(C(=O)NCCCNS(C)(=O)=O)CC1 | Mtb glucose medium: -8.232%; Mtb cholesterol medium: -11.15%
- CCOc1c(Br)cc(CNCCS(C)(=O)=O)cc1OC | Mtb glucose medium: 27.72%; Mtb cholesterol medium: 12.83%
- Cc1cc(C)cc(C(=O)N(C)CC(=O)N(C)C)c1 | Mtb glucose medium: -3.014%; Mtb cholesterol medium: -7.684%
- CN(C)S(=O)(=O)c1cccc(CN2CCCC2)c1 | Mtb glucose medium: 51.83%; Mtb cholesterol medium: 13.26%
- Cc1ccc(NCCCO)c(C(=O)N(C)C)c1 | Mtb glucose medium: 6.489%; Mtb cholesterol medium: -0.7322%
- CN1CCN(Cc2cccnc2)C2(CCCCC2)C1 | Mtb glucose medium: -2.862%; Mtb cholesterol medium: -1.957%
- COCCN1CCCN(Cc2ccc(C)o2)CC1=O | Mtb glucose medium: -6.875%; Mtb cholesterol medium: -16.76%
- Cc1nc(CNC(=O)NCc2cc[nH]n2)cs1 | Mtb glucose medium: 6.946%; Mtb cholesterol medium: -10.88%
- Cc1cc(CC(=O)NCCNc2cccnc2)on1 | Mtb glucose medium: 5.367%; Mtb cholesterol medium: 3.104%
- CCCn1ncc(CN2CCC(O)(CO)C2)c1C (stereo unspecified) | Mtb glucose medium: 2.721%; Mtb cholesterol medium: -10.41%
- Cc1cc(F)ccc1S(=O)(=O)N1C[C@H](C2CC2)[C@@H](N)C1 | Mtb glucose medium: 47.34%; Mtb cholesterol medium: 39.95%
- NCc1cccc(-c2ccncc2)c1 | Mtb glucose medium: 33.68%; Mtb cholesterol medium: 17.53%
- CO[C@@H]1COCC[C@H]1NC(=O)CCCn1cncn1 | Mtb glucose medium: 13.53%; Mtb cholesterol medium: 11.63%
- COCCOC1CCCNC1 (stereo unspecified) | Mtb glucose medium: 5.227%; Mtb cholesterol medium: -2.079%
- CSc1ncc(CN2CCN(C(=O)N(C)C)CC2)cn1 | Mtb glucose medium: 22.74%; Mtb cholesterol medium: -3.405%
- O=C1CN(CC(=O)Nc2cccc(Cl)c2Cl)CCN1 | Mtb glucose medium: 6.499%; Mtb cholesterol medium: -10.39%

For reference, 2 entries once more:

- Cc1[nH]c2ccc(C(N)=O)cc2c1C | Mtb glucose medium: 77.24%; Mtb cholesterol medium: 90.08%
- CN1CCN(Cc2cccnc2)C2(CCCCC2)C1 | Mtb glucose medium: -2.862%; Mtb cholesterol medium: -1.957%

From ChEMBL document CHEMBL3988442, “University of Dundee, Small-Polar-MMV Screening Library” (2021).